According to the supplement of paper PMC10849652:
This is one part of the list.

By UniProt entry, the sequences of proteins in these tests, tags left out. Where a name states a change or a piece, a line headed by the entry shows the natural chain unless it says otherwise.
UniProt Q9NR33: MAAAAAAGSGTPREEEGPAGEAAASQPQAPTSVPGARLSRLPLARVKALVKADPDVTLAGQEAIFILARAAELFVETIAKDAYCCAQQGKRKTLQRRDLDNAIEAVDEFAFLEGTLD
UniProt Q96HA1, whole entry, looked up: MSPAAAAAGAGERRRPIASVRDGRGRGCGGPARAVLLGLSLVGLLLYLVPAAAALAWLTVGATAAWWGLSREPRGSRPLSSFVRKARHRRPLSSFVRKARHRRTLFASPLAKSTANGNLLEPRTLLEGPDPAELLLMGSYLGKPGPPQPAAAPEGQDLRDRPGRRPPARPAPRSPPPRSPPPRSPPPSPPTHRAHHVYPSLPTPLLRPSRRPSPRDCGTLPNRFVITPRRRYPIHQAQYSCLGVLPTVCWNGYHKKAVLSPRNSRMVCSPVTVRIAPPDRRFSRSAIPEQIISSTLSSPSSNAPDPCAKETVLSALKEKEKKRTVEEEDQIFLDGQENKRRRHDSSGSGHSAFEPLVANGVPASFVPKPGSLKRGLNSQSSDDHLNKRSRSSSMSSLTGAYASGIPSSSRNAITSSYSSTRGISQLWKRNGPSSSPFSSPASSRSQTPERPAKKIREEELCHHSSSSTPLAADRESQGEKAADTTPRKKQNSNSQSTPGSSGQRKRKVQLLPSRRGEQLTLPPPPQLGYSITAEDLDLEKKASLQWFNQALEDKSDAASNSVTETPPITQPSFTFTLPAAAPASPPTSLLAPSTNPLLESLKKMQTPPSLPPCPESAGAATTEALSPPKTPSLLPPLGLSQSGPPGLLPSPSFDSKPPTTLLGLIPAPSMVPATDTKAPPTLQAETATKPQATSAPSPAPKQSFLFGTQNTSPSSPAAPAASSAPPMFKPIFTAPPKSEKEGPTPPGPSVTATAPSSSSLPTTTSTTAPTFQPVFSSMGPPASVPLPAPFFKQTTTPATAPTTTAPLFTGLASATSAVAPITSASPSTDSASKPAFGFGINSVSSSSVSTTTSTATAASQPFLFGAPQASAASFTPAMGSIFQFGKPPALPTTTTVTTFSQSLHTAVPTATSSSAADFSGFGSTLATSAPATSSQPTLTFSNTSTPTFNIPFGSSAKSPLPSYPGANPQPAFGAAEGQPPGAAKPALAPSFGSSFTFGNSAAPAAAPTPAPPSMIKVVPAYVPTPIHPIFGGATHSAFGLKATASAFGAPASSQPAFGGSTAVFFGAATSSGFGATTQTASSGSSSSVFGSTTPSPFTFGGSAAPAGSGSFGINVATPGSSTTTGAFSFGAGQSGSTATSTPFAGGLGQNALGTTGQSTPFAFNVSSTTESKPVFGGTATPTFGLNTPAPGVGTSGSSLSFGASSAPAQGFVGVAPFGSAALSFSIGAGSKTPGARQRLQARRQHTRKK
UniProt Q6EEV4: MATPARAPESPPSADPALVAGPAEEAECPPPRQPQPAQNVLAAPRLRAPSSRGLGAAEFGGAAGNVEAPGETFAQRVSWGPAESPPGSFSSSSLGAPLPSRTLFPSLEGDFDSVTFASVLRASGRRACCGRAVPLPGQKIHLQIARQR
UniProt Q04941: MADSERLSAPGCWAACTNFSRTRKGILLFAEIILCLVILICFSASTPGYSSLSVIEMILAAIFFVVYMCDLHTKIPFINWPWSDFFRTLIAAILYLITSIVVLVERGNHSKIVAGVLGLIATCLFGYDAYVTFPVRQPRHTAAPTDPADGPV
UniProt Q9NRF9: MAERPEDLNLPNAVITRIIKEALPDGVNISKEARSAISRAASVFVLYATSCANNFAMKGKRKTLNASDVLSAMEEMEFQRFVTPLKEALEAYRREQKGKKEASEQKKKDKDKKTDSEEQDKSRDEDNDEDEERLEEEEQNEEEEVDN
UniProt Q9NZ53: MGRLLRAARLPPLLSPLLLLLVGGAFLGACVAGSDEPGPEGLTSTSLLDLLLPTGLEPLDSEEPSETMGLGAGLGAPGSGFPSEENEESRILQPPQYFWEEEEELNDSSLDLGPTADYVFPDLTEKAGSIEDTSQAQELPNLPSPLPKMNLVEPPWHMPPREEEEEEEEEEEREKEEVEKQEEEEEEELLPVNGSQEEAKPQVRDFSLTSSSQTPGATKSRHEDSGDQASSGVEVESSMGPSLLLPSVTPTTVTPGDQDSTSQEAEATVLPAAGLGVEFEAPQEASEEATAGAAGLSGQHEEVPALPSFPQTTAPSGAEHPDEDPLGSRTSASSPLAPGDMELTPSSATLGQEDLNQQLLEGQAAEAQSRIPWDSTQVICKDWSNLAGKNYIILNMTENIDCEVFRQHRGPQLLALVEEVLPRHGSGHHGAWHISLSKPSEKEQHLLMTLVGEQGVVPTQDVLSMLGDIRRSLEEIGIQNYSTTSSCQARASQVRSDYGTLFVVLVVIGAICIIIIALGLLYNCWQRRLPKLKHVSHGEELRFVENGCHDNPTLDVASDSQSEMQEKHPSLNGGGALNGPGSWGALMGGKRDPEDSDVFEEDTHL
UniProt Q9NVU0: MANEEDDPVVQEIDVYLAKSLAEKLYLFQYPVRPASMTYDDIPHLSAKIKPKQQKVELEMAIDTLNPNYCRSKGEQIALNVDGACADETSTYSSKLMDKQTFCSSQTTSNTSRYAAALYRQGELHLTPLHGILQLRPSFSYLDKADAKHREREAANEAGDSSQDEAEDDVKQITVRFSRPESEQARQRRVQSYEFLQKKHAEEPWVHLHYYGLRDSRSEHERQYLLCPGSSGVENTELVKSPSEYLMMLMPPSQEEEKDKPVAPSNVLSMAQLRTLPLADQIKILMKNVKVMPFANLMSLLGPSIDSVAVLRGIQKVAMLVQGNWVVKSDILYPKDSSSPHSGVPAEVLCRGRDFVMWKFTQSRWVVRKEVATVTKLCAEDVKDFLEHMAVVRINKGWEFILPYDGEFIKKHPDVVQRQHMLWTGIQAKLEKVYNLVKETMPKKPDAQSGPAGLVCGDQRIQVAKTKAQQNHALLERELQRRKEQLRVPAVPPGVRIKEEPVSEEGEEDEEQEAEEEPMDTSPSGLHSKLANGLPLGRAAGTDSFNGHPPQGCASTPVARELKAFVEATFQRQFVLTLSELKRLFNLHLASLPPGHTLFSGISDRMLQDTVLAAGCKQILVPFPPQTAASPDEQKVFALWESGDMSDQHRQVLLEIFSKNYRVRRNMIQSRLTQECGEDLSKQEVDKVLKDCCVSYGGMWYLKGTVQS
UniProt Q8IYS1: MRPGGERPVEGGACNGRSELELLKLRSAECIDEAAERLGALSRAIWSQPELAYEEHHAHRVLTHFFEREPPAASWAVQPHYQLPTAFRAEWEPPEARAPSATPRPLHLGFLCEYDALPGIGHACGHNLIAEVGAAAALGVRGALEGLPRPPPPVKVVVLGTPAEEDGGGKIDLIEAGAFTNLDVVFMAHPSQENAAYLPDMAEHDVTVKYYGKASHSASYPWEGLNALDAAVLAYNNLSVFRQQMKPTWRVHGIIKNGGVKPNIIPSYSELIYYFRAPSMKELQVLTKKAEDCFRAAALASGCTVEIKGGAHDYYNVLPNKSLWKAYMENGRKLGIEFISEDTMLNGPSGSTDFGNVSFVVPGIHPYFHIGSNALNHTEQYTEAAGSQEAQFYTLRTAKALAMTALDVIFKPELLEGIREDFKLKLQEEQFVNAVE
UniProt Q96CD2: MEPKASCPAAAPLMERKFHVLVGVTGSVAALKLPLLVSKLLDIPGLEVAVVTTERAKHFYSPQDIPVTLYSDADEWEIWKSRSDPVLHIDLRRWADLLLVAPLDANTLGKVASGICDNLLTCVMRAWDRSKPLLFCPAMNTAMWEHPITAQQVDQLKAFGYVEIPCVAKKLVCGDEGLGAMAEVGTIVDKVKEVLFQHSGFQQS
UniProt P56282: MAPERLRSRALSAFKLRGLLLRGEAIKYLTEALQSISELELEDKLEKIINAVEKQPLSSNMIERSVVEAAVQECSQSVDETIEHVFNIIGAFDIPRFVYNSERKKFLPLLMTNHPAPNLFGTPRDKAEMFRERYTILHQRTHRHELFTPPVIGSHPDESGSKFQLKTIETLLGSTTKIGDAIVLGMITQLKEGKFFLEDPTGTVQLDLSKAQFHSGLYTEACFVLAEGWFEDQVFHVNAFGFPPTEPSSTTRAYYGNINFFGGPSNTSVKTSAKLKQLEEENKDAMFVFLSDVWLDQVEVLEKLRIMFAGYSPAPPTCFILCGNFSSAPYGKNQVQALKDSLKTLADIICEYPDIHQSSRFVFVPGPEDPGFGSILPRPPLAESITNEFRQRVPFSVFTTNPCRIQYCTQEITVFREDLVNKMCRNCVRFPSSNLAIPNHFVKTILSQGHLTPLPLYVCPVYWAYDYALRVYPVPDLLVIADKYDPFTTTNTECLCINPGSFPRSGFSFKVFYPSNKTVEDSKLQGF
UniProt Q8NEY8: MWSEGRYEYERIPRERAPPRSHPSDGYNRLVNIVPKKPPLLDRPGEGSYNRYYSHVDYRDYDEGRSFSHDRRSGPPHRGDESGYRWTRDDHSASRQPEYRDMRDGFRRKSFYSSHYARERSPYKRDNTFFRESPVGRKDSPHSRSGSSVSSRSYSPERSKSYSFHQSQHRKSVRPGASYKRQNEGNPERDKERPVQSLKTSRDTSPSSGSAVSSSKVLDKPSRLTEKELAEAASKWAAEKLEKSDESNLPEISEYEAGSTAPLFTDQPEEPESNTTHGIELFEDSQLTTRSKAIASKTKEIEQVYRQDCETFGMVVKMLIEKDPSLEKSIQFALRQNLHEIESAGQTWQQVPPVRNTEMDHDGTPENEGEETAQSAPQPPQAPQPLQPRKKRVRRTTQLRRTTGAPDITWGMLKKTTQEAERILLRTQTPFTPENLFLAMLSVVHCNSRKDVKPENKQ

Experiments:
Assay in all cases: log2 fold change, soluble protein after heating vs DMSO (PISA); higher = thermal stabilisation; K562 lysate, 10 uM; active = over 0.2 and 3.5 SD of the protein, either way, in both replicates (recomputed)
ibrutinib = compound: C=CC(=O)N1CCC[C@@H](n2nc(-c3ccc(Oc4ccccc4)cc3)c3c(N)ncnc32)C1 [ibrutinib]
How it was run: (§1)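 Thermal stability, expressed as log-two fold change relative to solvent controls, is given from duplicates. Crude K562 extract in PBS pH 7.4 with 1 mM MgCl2, at 1 mg/mL protein, was treated with 10 μM compound for 30 min and heated in aliquots for 3 min across 48°C-58°C. After pooling, adjustment to 0.5% NP-40 at 4°C and centrifugation at 21,000xg for 90 min, supernatant protein was measured by TMTpro 16plex LC-MS/MS with channel sums equalised.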

[1] = compound: CC(=O)c1cnc2ccc(-c3cc(Cl)c(O)c(Cl)c3)nc2c1N[C@H]1CC[C@H](CN(C)C)CC1
How it was run: as §1

ralimetinib = compound: CC(C)(C)Cn1c(N)nc2ccc(-c3[nH]c(C(C)(C)C)nc3-c3ccc(F)cc3)nc21 [ralimetinib]
How it was run: as §1

[2] = compound: CC(C)(O)CC(=O)NCCn1ccc2ncnc(Nc3ccc(Oc4cccc(C(F)(F)F)c4)c(Cl)c3)c21
How it was run: as §1

[3] = compound: CC(C)C1=C2N=C(C=C(N2N=C1)NCC3=CC=CC=C3)NCCCCCCN
How it was run: as §1

[4] = compound: CC1=C(C(CC(=O)N1)C2=CC=C(C=C2)C(F)(F)F)C(=O)NC3=C(C=C4C(=C3)C=NN4)F
How it was run: as §1

[5] = compound: CC1=C(C2=C(C=C1)C(=O)C3=CC=CC=C3N2CCCN)C
How it was run: as §1

[6] = compound: CC1=C(C=C(C=C1)NC(=O)C2=CC(=CC=C2)C(C)(C)C#N)NC3=CC4=C(C=C3)N=CN(C4=O)C
How it was run: as §1

[7] = compound: CC1=C(C=C(C=C1)NC(=O)C2=CC(=CC=C2)N(C)C)NC(=O)C3=CC=C(C=C3)O
How it was run: as §1

[8] = compound: CC1=CC=C(C=C1)SC2=C3C=C(SC3=CN=C2)C(=O)N
How it was run: as §1

vemurafenib = compound: CCCS(=O)(=O)Nc1ccc(F)c(C(=O)c2c[nH]c3ncc(-c4ccc(Cl)cc4)cc23)c1F [vemurafenib]
How it was run: as §1

[9] = compound: CCCS(=O)(=O)Nc1ccc(F)c(C(=O)c2c[nH]c3ncc(Cl)cc23)c1F
How it was run: as §1

barasertib = compound: CCN(CCCOc1ccc2c(Nc3cc(CC(=O)Nc4cccc(F)c4)[nH]n3)ncnc2c1)CCOP(=O)(O)O [barasertib]
How it was run: as §1

[10] = compound: CC[C@@H]1C(=O)N(C)c2cnc(Nc3ccc(C(=O)NC4CCN(C)CC4)cc3OC)nc2N1C1CCCC1
How it was run: as §1

volasertib = compound: CC[C@@H]1C(=O)N(C)c2cnc(Nc3ccc(C(=O)N[C@H]4CC[C@H](N5CCN(CC6CC6)CC5)CC4)cc3OC)nc2N1C(C)C [volasertib]
How it was run: as §1

[11] = compound: CCn1c(C(=O)N(C2CC2)C2CC2)cc2c3c(ncn3C)c(Nc3cc(C)n(C)n3)nc21
How it was run: as §1

[12] = compound: CCn1cc(-c2ccnc3[nH]c(-c4cccc(CN(C)C)c4)cc23)c(-c2ccc(NC(=O)N(C)C)cc2)n1
How it was run: as §1

[13] = compound: CN1CCC(CNc2ccc3ncc(-c4cccc(OC(F)(F)F)c4)n3n2)CC1
How it was run: as §1

saracatinib = compound: CN1CCN(CCOc2cc(OC3CCOCC3)c3c(Nc4c(Cl)ccc5c4OCO5)ncnc3c2)CC1 [saracatinib]
How it was run: as §1

sotrastaurin = compound: CN1CCN(c2nc(C3=C(c4c[nH]c5ccccc45)C(=O)NC3=O)c3ccccc3n2)CC1 [sotrastaurin]
How it was run: as §1

Measured: log2 fold change

POLE4 (UniProt Q9NR33)
inactive: ibrutinib 0.012 | [1] 0.011 | ralimetinib -0.007 | [2] -0.01 | [3] 0.073 | [4] -0.209 | [5] -0.031 | [6] 0.162 | [7] 0.032 | [8] -0.008 | vemurafenib 0.048 | [9] 0.023 | barasertib 0.115 | [10] -0.056 | volasertib 0.007 | [11] 0.007 | [12] -0.103 | [13] -0.031 | saracatinib -0.041 | sotrastaurin -0.024

POM121 (UniProt Q96HA1)
inactive: ibrutinib 0.015 | [1] 0.075 | ralimetinib -0.04 | [2] 0.006 | [3] -0.037 | [5] -0.1 | [6] 0.022 | [7] 0.09 | [8] 0.048 | vemurafenib -0.018 | [9] -0.038 | barasertib 0.024 | [10] -0.008 | volasertib 0.064 | [11] -0.061 | [12] -0.199 | [13] 0.088 | saracatinib 0.09 | sotrastaurin -0.009

POLR2M (UniProt Q6EEV4)
inactive: ibrutinib 0.005 | [1] -0.07 | [3] -0.109 | [5] 0.007 | [6] 0.157 | [8] 0.078 | vemurafenib 0.117 | [9] -0.043 | barasertib 0.176 | [10] 0.032 | volasertib -0.074 | [12] 0.154 | [13] -0.077 | saracatinib 0.016 | sotrastaurin -0.072

PLP2 (UniProt Q04941)
inactive: ibrutinib -0.012 | [1] -0.027 | [3] -0.188 | [4] -0.036 | [5] 0.026 | [6] 0.048 | [8] 0.049 | vemurafenib -0.062 | [9] 0.047 | barasertib -0.068 | [10] 0.025 | volasertib -0.083 | [12] 0.054 | [13] -0.043 | saracatinib -0.088 | sotrastaurin 0.059

POLE3 (UniProt Q9NRF9)
inactive: ibrutinib -0.03 | [1] 0.017 | ralimetinib -0.048 | [2] -0.014 | [3] 0.012 | [4] -0.028 | [5] 0.008 | [6] -0.065 | [7] -0.026 | [8] 0.003 | vemurafenib 0.008 | [9] -0.021 | barasertib 0.01 | [10] 0.05 | volasertib 0.014 | [11] -0.012 | [12] -0.011 | [13] 0.034 | saracatinib 0.017 | sotrastaurin 0.003

PODXL2 (UniProt Q9NZ53)
inactive: ibrutinib 0.134 | [1] -0.1 | ralimetinib 0.131 | [2] 0.019 | [3] -0.331 | [4] -0.029 | [5] -0.039 | [6] -0.041 | [7] 0.061 | [8] 0.057 | vemurafenib 0.237 | [9] -0.131 | barasertib 0.021 | [10] -0.02 | volasertib 0 | [11] -0.124 | [12] 0.012 | [13] -0.013 | saracatinib 0.255 | sotrastaurin 0.07

POLR3E (UniProt Q9NVU0)
inactive: ibrutinib 0.02 | [1] 0.018 | ralimetinib 0.043 | [2] -0.006 | [3] 0.029 | [4] 0.025 | [5] -0.021 | [6] -0.004 | [7] 0.003 | [8] 0.007 | vemurafenib 0.011 | [9] 0.02 | barasertib 0.003 | [10] 0.018 | volasertib -0.004 | [11] -0.012 | [12] 0.035 | [13] 0.012 | saracatinib 0.017 | sotrastaurin 0.048

PM20D2 (UniProt Q8IYS1)
inactive: ibrutinib -0.062 | [1] 0.089 | ralimetinib -0.234 | [2] 0.153 | [7] -0.135 | [8] -0.025 | vemurafenib -0.101 | [9] 0.008 | barasertib -0.131 | [10] 0.116 | volasertib -0.041 | [11] 0.182

PPCDC (UniProt Q96CD2)
inactive: ibrutinib 0.016 | [1] 0.023 | ralimetinib 0.067 | [2] -0.157 | [3] 0.064 | [4] -0.023 | [5] -0.033 | [6] 0.019 | [7] -0.041 | [8] 0.003 | vemurafenib 0.1 | [9] 0.003 | barasertib 0.066 | [10] 0.047 | volasertib 0.006 | [11] 0.008 | [12] -0.342 | [13] 0.165 | saracatinib 0.018 | sotrastaurin 0.038

POLE2 (UniProt P56282)
inactive: ibrutinib 0.04 | [1] 0.189 | ralimetinib 0.048 | [2] -0.016 | [3] -0.024 | [4] 0.029 | [5] 0.004 | [6] 0.01 | [7] 0.009 | [8] 0.259 | vemurafenib 0.039 | [9] 0.021 | barasertib 0.034 | [10] -0.033 | volasertib -0.104 | [11] 0.043 | [12] -0.164 | [13] 0.085 | saracatinib 0.012 | sotrastaurin 0.094

PPHLN1 (UniProt Q8NEY8)
inactive: [1] -0.046 | [3] 0.092 | [4] -0.034 | [6] 0.009 | [8] -0.017 | vemurafenib -0.024 | [9] 0.043 | [10] 0.081 | volasertib -0.045 | [12] 0.124 | [13] -0.046 | sotrastaurin -0.008
